These are yes or no findings as the source states them, for the method shown. Binding seen in cells or lysates may run through a third protein. Some entries that bind do so weakly or less than the wild type. For part of these data: Tags and fused reporters may be left off the sequences shown.

By UniProt entry, the sequences of proteins in these tests, tags left out. Residues count along the entry.
UniProt Q15388: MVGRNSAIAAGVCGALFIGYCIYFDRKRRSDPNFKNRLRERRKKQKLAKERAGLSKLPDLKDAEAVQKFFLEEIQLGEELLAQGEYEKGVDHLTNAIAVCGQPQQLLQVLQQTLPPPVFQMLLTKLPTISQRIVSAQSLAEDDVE
UniProt Q15118, residues 29-436: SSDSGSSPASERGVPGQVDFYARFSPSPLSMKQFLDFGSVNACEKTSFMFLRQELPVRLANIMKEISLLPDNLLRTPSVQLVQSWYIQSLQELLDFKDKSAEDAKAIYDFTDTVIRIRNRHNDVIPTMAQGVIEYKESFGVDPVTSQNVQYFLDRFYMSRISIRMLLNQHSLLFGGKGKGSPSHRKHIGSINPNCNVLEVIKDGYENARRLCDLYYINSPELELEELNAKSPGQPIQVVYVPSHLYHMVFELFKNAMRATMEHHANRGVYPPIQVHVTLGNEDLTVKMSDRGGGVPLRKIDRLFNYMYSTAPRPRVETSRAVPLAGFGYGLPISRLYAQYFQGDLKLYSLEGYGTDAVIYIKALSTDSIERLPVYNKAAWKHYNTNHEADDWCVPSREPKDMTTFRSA
UniProt P28482: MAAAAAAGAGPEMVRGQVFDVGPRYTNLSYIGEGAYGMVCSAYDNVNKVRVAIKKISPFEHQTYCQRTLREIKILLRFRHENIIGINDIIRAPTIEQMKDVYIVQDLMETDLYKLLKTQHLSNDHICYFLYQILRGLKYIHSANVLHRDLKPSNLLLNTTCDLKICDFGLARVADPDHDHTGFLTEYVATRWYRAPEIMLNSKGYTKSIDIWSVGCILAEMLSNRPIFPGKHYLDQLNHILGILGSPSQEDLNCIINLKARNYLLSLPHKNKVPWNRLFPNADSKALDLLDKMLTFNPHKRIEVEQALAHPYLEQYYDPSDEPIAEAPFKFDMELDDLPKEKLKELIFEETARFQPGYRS

The target in assay [1] is endogenous PGK1 (phosphoglycerate kinase 1) of U87 human GBM cells (human) (UniProt P00558). As to the kind of experiment: streptavidin pull-down from mitochondrial fractions of U87 cells (FIG. 14C).
The target of assay [2] is endogenous TOM20 of U87 cells (human) (UniProt Q15388). As to the kind of experiment: co-immunoprecipitation from U87 cells (FIG. 3A).
Assay [3] addresses T1, GST-PGK1 (wild type), bacterially purified (human) (UniProt P00558).
T1 sequence (looked up): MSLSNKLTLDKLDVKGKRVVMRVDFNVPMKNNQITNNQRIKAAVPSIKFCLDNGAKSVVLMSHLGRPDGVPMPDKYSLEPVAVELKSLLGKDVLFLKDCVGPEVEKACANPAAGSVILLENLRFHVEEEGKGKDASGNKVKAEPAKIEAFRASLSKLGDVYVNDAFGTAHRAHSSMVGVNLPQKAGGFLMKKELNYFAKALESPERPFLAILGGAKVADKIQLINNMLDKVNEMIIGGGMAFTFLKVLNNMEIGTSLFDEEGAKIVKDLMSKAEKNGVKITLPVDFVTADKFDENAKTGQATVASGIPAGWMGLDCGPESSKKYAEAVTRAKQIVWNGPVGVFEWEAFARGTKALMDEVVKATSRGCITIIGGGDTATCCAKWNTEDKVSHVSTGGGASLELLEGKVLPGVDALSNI
As to the kind of experiment: in vitro GST pull-down, purified recombinant proteins (FIG. 10G).

In the case of “SFB-PDHK1 expressed in U87 cells (from UniProt Q15118 29-436) (enzyme)”, the binding result in assay [1] is “binds”.
“endogenous PGK1 (phosphoglycerate kinase 1) of U87 human GBM cells (from UniProt P00558 2-417) (enzyme)”: in assay [2], the binding result is given as “binds”.
Regarding “purified recombinant active His-ERK2 (from UniProt P28482 1-360) (enzyme)”, the binding result in assay [3] is given as “binds”.

Source of the values: patent US20180011102A1, “THE PROTEIN KINASE ACTIVITY OF PHOSPHOGLYCERATE KINASE 1 AS A TARGET FOR CANCER TREATMENT AND DIAGNOSIS” (Board of Regents, The University of Texas System, priority 2015, published 2018).
